Experimental data published in paper PMC11077861.
No constants are given. Whether binding was seen depends on the method and setting. For some of these results: In cells and extracts the contact can be indirect. Some results given as binding are weak or reduced against the parent protein; the word gives no strength. For some of these results: Tags and fused reporters may be left off the sequences shown. Each block holds one substance with its values, some of them ahead of it.

Protein sequences, listed by entry. Tags and fused reporters are not part of them. Lines headed by an entry give the natural chain unless they say otherwise; changes in a name come on top. Chains listed by the source or under a name are the forms on record and can include a tag or linker.
UniProt P14618: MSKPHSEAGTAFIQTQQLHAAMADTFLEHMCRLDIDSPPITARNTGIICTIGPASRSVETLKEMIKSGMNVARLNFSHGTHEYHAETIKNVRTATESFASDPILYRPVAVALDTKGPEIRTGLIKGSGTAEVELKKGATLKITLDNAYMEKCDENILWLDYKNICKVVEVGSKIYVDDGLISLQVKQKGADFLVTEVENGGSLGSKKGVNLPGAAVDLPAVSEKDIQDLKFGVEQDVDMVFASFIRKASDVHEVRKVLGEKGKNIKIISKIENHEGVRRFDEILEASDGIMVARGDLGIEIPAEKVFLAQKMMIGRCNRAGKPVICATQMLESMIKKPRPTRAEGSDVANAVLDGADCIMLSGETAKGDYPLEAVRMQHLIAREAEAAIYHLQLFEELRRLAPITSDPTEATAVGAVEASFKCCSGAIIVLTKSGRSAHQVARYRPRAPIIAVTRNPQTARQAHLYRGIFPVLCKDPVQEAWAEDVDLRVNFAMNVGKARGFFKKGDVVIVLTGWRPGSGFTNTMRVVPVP
PKM2^(I267&268 A) (in CAOV3 and OV90 cells) (P14618, form named): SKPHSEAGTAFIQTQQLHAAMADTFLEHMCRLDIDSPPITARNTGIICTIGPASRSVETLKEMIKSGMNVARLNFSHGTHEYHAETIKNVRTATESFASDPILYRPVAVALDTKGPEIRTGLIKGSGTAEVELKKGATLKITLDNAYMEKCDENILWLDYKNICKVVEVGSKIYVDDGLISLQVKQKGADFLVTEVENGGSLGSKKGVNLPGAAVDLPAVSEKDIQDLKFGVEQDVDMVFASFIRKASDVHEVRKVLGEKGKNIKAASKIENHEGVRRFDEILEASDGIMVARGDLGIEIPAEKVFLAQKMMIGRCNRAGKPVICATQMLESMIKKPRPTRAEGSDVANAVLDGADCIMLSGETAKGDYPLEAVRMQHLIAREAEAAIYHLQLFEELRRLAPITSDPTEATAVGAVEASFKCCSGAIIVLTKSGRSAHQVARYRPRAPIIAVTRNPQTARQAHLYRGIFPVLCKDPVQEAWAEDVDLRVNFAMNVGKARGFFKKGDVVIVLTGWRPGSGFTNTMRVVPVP

Key:
[1] = target: T1, Flag-tagged ESM1 (in 293T cells) (human) (UniProt Q9NQ30); assay: co-IP; tagged proteins co-transfected into HEK-293T cells, IP and Western blot
T1 sequence: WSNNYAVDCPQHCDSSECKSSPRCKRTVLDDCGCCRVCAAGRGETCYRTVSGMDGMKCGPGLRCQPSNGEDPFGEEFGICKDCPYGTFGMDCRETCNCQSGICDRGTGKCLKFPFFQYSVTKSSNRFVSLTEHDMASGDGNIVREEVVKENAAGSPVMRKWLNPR

[2] = target: Pyruvate kinase isozyme M2 (PKM2), endogenous (human (endogenous in OV90, CAOV3, SKOV3 and A2780)) (UniProt P14618); assay: Western blot of dimeric PKM2; ESM1-overexpressing CAOV3 and OV90 cells with PKM2^(I267&268 A); whether cross-linked as in Fig. 3F is not said
[3] = target: T2, Endothelial cell specific molecule 1 (ESM1), endogenous (human (endogenous in OV90 and CAOV3)) (UniProt Q9NQ30); assay: co-IP; lysates of ovarian cancer cell lines (OV90, CAOV3, SKOV3) in IP lysis buffer, antibody overnight at 4 °C, protein A/G beads, Western blot; with or without ESM1 overexpression or knockdown; treatments: ginkgolic acid, simvastatin, Shikonin, UBA2 shRNA
T2 sequence: T1 sequence

[4] = target: T3, ESM1 overexpressed in ovarian cancer cells (Flag-tagged) (human) (UniProt Q9NQ30); assay: as above
T3 sequence: T1 sequence

binding [1]: binds
Substance: GST-tagged PKM2 (in 293T cells) (from UniProt P14618 2-531) (enzyme)

binding [2]: no binding
Substance: PKM2^(I267&268 A) (in CAOV3 and OV90 cells) (from UniProt P14618 2-531) (enzyme)

binding [3]: binds
binding [4]: binds
Substance: Pyruvate kinase isozyme M2 (PKM2), endogenous (from UniProt P14618 1-531) (enzyme)
